From PubChem BioAssay AID445 (National Center for Advancing Translational Sciences (NCATS), 2006) come the findings set out here.

Broadly, the AC50 is the midpoint of the concentration-response curve, whichever way the signal moves.

Structures are written as SMILES. The list shows a part of the results. These are further read-outs of the screen, such as a control signal, another cell line or another target. No call is given for them. The list favours compounds with an active or inconclusive main result. Words in brackets tell the shape of the fitted curve; partial curves, single points and poor fits give uncertain potencies.

The assay in a line: IkB Signaling. The conditions noted are these: ABC-DLBCL IkBa-CBG/CBR dual luciferase ratio (green luciferase fused to IkBa over red control in OCI-Ly3 lymphoma cells), 4 h; measured here: control luc red channel unless noted. In outline:
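Curves were fitted separately to fusion (green), unfused (red) and ratio luminescence, then classed by r2, magnitude and activity. Cells: OCI-Ly3, 4 h compound plus doxycycline at 37C; 10 uM MG-132 defined full response.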
Take `Cc1ccsc1CN(C(=O)c1ccc(OCC(C)C)cc1)C1CCS(=O)(=O)C1` (stereo not drawn): the AC50 is 25.1 µM [falling, partial curve].

Turning to `CCc1ccc(NC(=O)c2ccc(F)c(S(=O)(=O)N3CCN(c4ccc(OC)cc4)CC3)c2)cc1`, the AC50 was 0.251 µM [falling, full curve, poor fit].

With `CCOC(=O)c1cccc(NS(=O)(=O)c2cc(-c3cnc(C4CC4)o3)ccc2C)c1`, the concentration at half-maximal activity (AC50) was 39.8 µM [falling, single point].

As for `Cc1ccc(Sc2c(C)nn(C(=O)c3ccc(Cl)cc3)c2C)cc1`, the concentration at half-maximal activity (AC50) was 10 µM [falling, partial curve].

As to `CCC(c1nnnn1Cc1cccs1)N1CCN(c2nc3ccccc3s2)CC1` (stereo not drawn), the concentration at half-maximal activity (AC50) is 25.1 µM [falling, partial curve].

On to `Cc1ccc(-n2c3nc(=O)[nH]c(=O)c-3cc3c(C)nn(-c4ccccc4)c32)cc1C`, for which the AC50 is 0.1 µM [falling, full curve].

With `COc1ccccc1CNC(=O)CCCN1C(=O)CSc2c1c(C)nn2-c1ccccc1`, the AC50 was 12.6 µM [falling, partial curve].

Consider `CC(=O)N1CCOc2cc(S(=O)(=O)NCc3ccc(F)cc3)c(C)cc21`, for which the concentration at half-maximal activity (AC50) was 0.631 µM [falling, full curve].

In the case of `O=C(NC1CCCc2ccccc21)c1ccc2c(c1)sc1nc(-c3ccccc3)cn12` (stereo not drawn), the AC50 is 12.6 µM [falling, partial curve].

For the compound `O=C(Nc1ccc2c(c1)CCCN2C(=O)c1cccs1)c1ccccc1`, the half-maximal activity concentration (AC50) was 39.8 µM [falling, single point].

In the case of `CC(CNC(=O)CCc1cn(Cc2ccccc2Cl)c2ccccc12)c1ccccc1` (stereo not drawn), the AC50 was 25.1 µM [falling, partial curve].

On to `Cc1c(C(=O)NCc2cccc(Cl)c2)sc2nc[nH]c(=O)c12`, for which the half-maximal activity concentration (AC50) is 1.26 µM [rising, full curve].

Consider `COc1cccc(Oc2nc(C)nc3c2oc2ccccc23)c1`, for which the AC50 was 39.8 µM [falling, single point].

For `COc1cc(S(=O)(=O)N2CCN(c3ccccc3F)CC2)ccc1Cl`, the concentration at half-maximal activity (AC50) was 10 µM [falling, partial curve].

Consider `C/C(=C\C(=O)c1ccccc1)Nc1cccc(O)c1`, for which the half-maximal activity concentration (AC50) was 10 µM [falling, partial curve].

Take `Oc1ccc(Cl)cc1/C=N/c1nc2ccccc2[nH]1`: the concentration at half-maximal activity (AC50) is 0.251 µM [falling, full curve].

In the case of `Cc1nc(N2CCCC2)c2c(C(=O)Nc3cccc(Cl)c3)c(C)oc2n1`, the AC50 is 3.16 µM [falling, single point].

Take `O=C(Nc1ccc(Br)cc1)C1CCCN(S(=O)(=O)c2ccc(Br)s2)C1` (stereo not drawn): the concentration at half-maximal activity (AC50) is 20 µM [falling, partial curve].
